In PubChem BioAssay AID1347076 (National Center for Advancing Translational Sciences (NCATS), 2019):
In all, about 400,000 compounds went through this assay and about 13,000 (3.2%) were called active. Inconclusive means that the source gave no clear call. Such entries were picked first, then a sample of the others. Calls come from the whole dose curve; as a rule, active = well fitted cell-killing curve with a large enough effect; inconclusive = small, poorly fitted or top-dose-only effect, or effect the other way; inactive = flat fitted curve, though single readings scatter. Where the call is inconclusive, the potency comes from a doubtful curve fit.

Assay: qHTS assay for MDR1-selective chemotherapeutics: Primary screen using the drug-selected MDR subline cells KB-V1; note: nearly all actives have a fitted effect of over 60% in size
Conditions: KB-V1 MDR cells viability, CellTiter-Glo, 72 h; activity change, negative = cytotoxicity: at 46.1 µM (top of the series)
Outline: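 In this primary screen, KB-V1 cells overexpressing P-gp are incubated with library compounds (lowest to highest concentration) for 72 h at 37 degrees C before a luminescent ATP viability read.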
% is set by controls: 0 for no effect and ±100 for the full control effect; potency is the fitted concentration of half-maximal effect.

Structure (SMILES)	Potency	activity change, negative = cytotoxicity
OC(c1cccc(Cl)c1)(c1cccc(Cl)c1)C1CN2CCC1CC2 (stereo not drawn)	inconclusive: 16.4 µM [cytotoxic, single point]	–
C/C(=N\N1CCCCC1c1cccnc1)c1c(O)n(C2CCCCC2)c(=S)[nH]c1=O (stereo not drawn)	inconclusive: 23.1 µM [cytotoxic, partial curve, poor fit]	–
CC(C)CCn1c(=O)c(C(=O)Nc2ccccc2S(N)(=O)=O)c(O)c2ccccc21	active: 2.91 µM	–
COc1ccc(N=C(C)c2c(O)[nH]c(=O)[nH]c2=O)cc1	inconclusive: 29.1 µM [cytotoxic, single point]	–
COc1cc(CN=C(C)c2c(O)n(C3CCCCC3)c(=O)[nH]c2=O)cc(OC)c1	inconclusive: 9.2 µM [cytotoxic, partial curve, poor fit]	–
COc1cc(/C=C(/C)[N+](=O)[O-])ccc1OCc1ccccc1Cl	inconclusive: 29.1 µM [cytotoxic, partial curve, poor fit]	–
COC[C@H]1OC(=O)c2coc3c2[C@@]1(C)C1=C(C3=O)[C@@H]2CCC(=O)[C@@]2(C)C[C@H]1OC(C)=O	inconclusive: 11.6 µM [cytotoxic, partial curve, poor fit]	–
CCCCn1c(O)c(C(CC)=NCc2ccc3c(c2)OCO3)c(=O)[nH]c1=O	inconclusive: 18.4 µM [cytotoxic, single point]	–
CC(=O)Nc1ccc(S(=O)(=O)N2Cc3ccccc3-n3nncc3C2)cc1	–	inconclusive: 67.7%
C=CCN1C(=O)C2(C(C(=O)OC)=C(N)Oc3c2c(=O)oc2ccccc32)c2ccccc21 (stereo not drawn)	–	inactive: -15%
Oc1cc2c(cc1O)[C@H]1c3ccccc3CN[C@@H]1CC2	inconclusive: 29.1 µM [rising, single point]	–
C(=NN1CCCCCC1)c1c[nH]c2ccccc12	–	inactive: -17%
CCCC[N+]12CCC(CC1)C(C(O)(c1ccccc1)c1ccccc1)C2 (stereo not drawn)	inconclusive: 13 µM [rising, partial curve, poor fit]	–
CCOC(=O)C(=CNc1ccc(C(O)(C(=O)OCC)C(F)(F)F)cc1C)C(=O)OCC (stereo not drawn)	inconclusive: 25.9 µM [cytotoxic, partial curve, poor fit]	–
O=c1[nH]c(O)c(C=NC2CCCCC2)c(=O)[nH]1	–	inactive: -3.38%
Cc1ccccc1CN1CCCN(Cc2ccc(Cl)cc2)S1(=O)=O	–	inactive: 1.9%
Cn1c(O)c(C=Nc2cccc(C(F)(F)F)c2)c(=O)n(C)c1=O	inconclusive: 9.2 µM [cytotoxic, partial curve, poor fit]	–
O=C(c1ccc2c(c1)OCO2)C1CCCN(Cc2ccc(F)c(F)c2)C1 (stereo not drawn)	inconclusive: 8.2 µM [cytotoxic, partial curve]	–

Entries above that contain a carbonyl joined to an NH by a bond outside any ring (2):
Structure (SMILES)	Potency	activity change, negative = cytotoxicity
CC(C)CCn1c(=O)c(C(=O)Nc2ccccc2S(N)(=O)=O)c(O)c2ccccc21	active: 2.91 µM	–
CC(=O)Nc1ccc(S(=O)(=O)N2Cc3ccccc3-n3nncc3C2)cc1	–	inconclusive: 67.7%
